PubChem BioAssay AID686938 – Drosophila RNAi Screening Center | 2013

Assay: 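Knock-downs reducing store-operated calcium influx in Drosophila cells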 (primary screen)
Cell system: Drosophila S2R+ cells
Reagents: long dsRNA against Drosophila genes, about 0.25 µg dsRNA per well, roughly 10,000 cells
Timing: 5 days of knock-down before the calcium assay
Challenge: thapsigargin (SERCA pump blocker) to empty calcium stores; entry signal taken 4 min after adding it
Measurement: 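Duplicate raw fluo-4 intensities per well from a plate reader, at rest and four minutes after thapsigargin emptied calcium stores; entry-to-rest ratio filled for only some wells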
Direction: calcium entry signal: higher = stronger calcium signal after store depletion; entry to resting ratio: higher = more calcium entry relative to resting level; resting calcium signal: higher = higher resting calcium signal
Hit rule: 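Hit if the duplicate-averaged plate z-score for entry over resting signal is under −3; wells with weak total dye signal (Fmax z < −2) or more than 5 off-targets removed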
Calls: active = strongly reduced calcium entry; inactive = no strong reduction
The deposit covers about 23,000 reagents; below is an unselected part of those that have a named target and a result. Over the whole deposit, 75 (0.33%) are marked active. 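Raw plate signals without normalisation; calls rest on plate z-scores that were not deposited; ratio present for only 364 wells.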 No sequences are given here. The record does not give: the dose of the treatment.

The opening 6 records, to show the layout:
Target gene	amplicon	calcium entry signal, replicate 1 (fluorescence units)	calcium entry signal, replicate 2 (fluorescence units)	entry to resting ratio	resting calcium signal, replicate 1 (fluorescence units)	resting calcium signal, replicate 2 (fluorescence units)	Outcome
elm (ethanol sensitive with low memory)	DRSC12309	2.87e7	3.81e7		1.31e7	1.66e7	inactive
CG10340	DRSC14232	3.78e7	3.08e7		1.87e7	1.43e7	inactive
Ir68b (Ionotropic receptor 68b)	DRSC10251	3.05e7	4.34e7		1.68e7	2.00e7	inactive
CG13014	DRSC19533	2.70e7	3.16e7		1.40e7	1.39e7	inactive
CG12010	DRSC08218	2.84e7	3.59e7		1.53e7	1.60e7	inactive
dsb (debris buster)	DRSC08407	1.81e7	2.74e7		1.18e7	1.42e7	inactive

Results, from the start:
Target gene	amplicon	calcium entry signal, replicate 1 (fluorescence units)	calcium entry signal, replicate 2 (fluorescence units)	entry to resting ratio	resting calcium signal, replicate 1 (fluorescence units)	resting calcium signal, replicate 2 (fluorescence units)	Outcome
elm (ethanol sensitive with low memory)	DRSC12309	2.87e7	3.81e7		1.31e7	1.66e7	inactive
CG10340	DRSC14232	3.78e7	3.08e7		1.87e7	1.43e7	inactive
Ir68b (Ionotropic receptor 68b)	DRSC10251	3.05e7	4.34e7		1.68e7	2.00e7	inactive
CG13014	DRSC19533	2.70e7	3.16e7		1.40e7	1.39e7	inactive
CG12010	DRSC08218	2.84e7	3.59e7		1.53e7	1.60e7	inactive
dsb (debris buster)	DRSC08407	1.81e7	2.74e7		1.18e7	1.42e7	inactive
dsb (debris buster)	DRSC08542	2.64e7	3.14e7		1.42e7	1.49e7	inactive
Cad96Ca (Cadherin 96Ca)	DRSC14220	4.38e7	6.27e7		2.33e7	2.79e7	inactive
Cad96Ca (Cadherin 96Ca)	DRSC16693	4.27e7	6.90e7		2.15e7	2.84e7	inactive
Myb (Myb oncogene-like)	DRSC20260	3.02e7	3.06e7		1.56e7	1.50e7	inactive
CG7368	DRSC10826	3.26e7	3.30e7		1.60e7	1.45e7	inactive
CG7368	DRSC22821	3.20e7	4.64e7		1.56e7	2.18e7	inactive
CG13198	DRSC06323	3.20e7	3.57e7		1.66e7	1.87e7	inactive
CG16972	DRSC02550	4.79e7			2.30e7		inactive
Srp14 (Signal recognition particle 14)	DRSC15797	3.91e7	4.11e7		5.65e7	1.79e7	inactive
CG11069	DRSC14289	4.97e7	4.70e7		2.28e7	1.98e7	inactive
CG10841	DRSC14271	3.31e7	4.26e7		1.60e7	1.87e7	inactive
lncRNA:CR30009 (long non-coding RNA:CR30009)	DRSC22952	2.68e7	3.01e7		1.41e7	1.31e7	inactive
Chi (Chip)	DRSC04602	4.66e7			2.26e7		inactive
Klp67A (Kinesin-like protein at 67A)	DRSC11205	1.20e7	2.18e7		7.01e6	1.06e7	inactive
CG4462	DRSC15583	4.25e7	2.95e7		2.10e7	1.41e7	inactive
Shark (SH2 ankyrin repeat kinase)	DRSC07680	3.59e7	3.34e7		1.67e7	1.59e7	inactive
CG4496	DRSC02753	3.63e7	3.81e7		1.80e7	1.82e7	inactive
ppk3 (pickpocket 3)	DRSC04275	3.50e7	4.77e7		1.80e7	2.10e7	inactive
CG13457	DRSC10004	4.67e7	7.09e7		2.28e7	2.53e7	inactive
CG13083	DRSC02187	5.19e7	5.25e7		2.64e7	2.15e7	inactive
CG17652	DRSC00511	2.74e7	3.77e7		1.42e7	1.64e7	inactive
Sodh1 (Sorbitol dehydrogenase 1)	DRSC12605	3.70e7	4.84e7		1.66e7	2.05e7	inactive
CG14273	DRSC02377	3.32e7	5.26e7		1.72e7	2.22e7	inactive
CG9308	DRSC04539	4.77e7	4.39e7		2.11e7	1.89e7	inactive
Vps52 (Vacuolar protein sorting 52)	DRSC03050	2.09e7	2.18e7		1.17e7	1.11e7	inactive
Hers (Histone gene-specific Epigenetic Repressor in late S phase)	DRSC19429	3.19e7	4.38e7		1.53e7	1.93e7	inactive
Hers (Histone gene-specific Epigenetic Repressor in late S phase)	DRSC19676	4.50e7	3.87e7		2.05e7	1.75e7	inactive
Jhbp1 (Juvenile hormone binding protein 1)	DRSC12167	2.97e7	4.96e7		1.48e7	2.29e7	inactive
fs(1)Yb (female sterile (1) Yb)	DRSC18777	3.61e7	4.79e7	1.9	1.88e7	1.98e7	inactive
CG31760	DRSC02590	3.81e7	2.61e7		1.79e7	1.23e7	inactive
CG14357	DRSC14820	4.02e7	4.87e7		1.91e7	4.80e7	inactive
CG9426	DRSC03219	3.74e7	2.86e7		1.91e7	1.39e7	inactive
Mst77F (Male-specific transcript 77F)	DRSC11871	3.21e7	4.64e7		1.65e7	2.05e7	inactive
CG33116	DRSC02045	2.85e7			1.58e7		inactive
CG2104	DRSC12304	4.87e7	3.67e7		2.39e7	1.89e7	inactive
ND-19 (NADH dehydrogenase (ubiquinone) 19 kDa subunit)	DRSC04404	5.47e7	2.41e7		2.73e7	1.25e7	inactive
shps (sheepish)	DRSC14614	3.60e7	6.87e7		2.06e7	2.82e7	inactive
Art7 (Arginine methyltransferase 7)	DRSC04588	4.84e7	5.23e7		2.46e7	2.32e7	inactive
CG18518	DRSC01509	2.97e7	3.37e7		1.58e7	1.73e7	inactive
ttk (tramtrack)	DRSC14078	5.00e7	4.07e7		2.55e7	1.85e7	inactive
ttk (tramtrack)	DRSC17091	2.02e7	2.96e7	1.5	1.33e7	1.70e7	inactive
CG15115	DRSC06537	4.14e7	3.12e7		2.11e7	1.62e7	inactive
Slik (Sterile20-like kinase)	DRSC04471	3.96e7			2.17e7		inactive
eIF4E5 (eukaryotic translation initiation factor 4E5)	DRSC10975	3.24e7	4.37e7		1.46e7	2.04e7	inactive
CG31819	DRSC01532	3.74e7	3.48e7		1.95e7	1.84e7	inactive
SerRS (Seryl-tRNA synthetase)	DRSC00496	3.70e7			1.71e7		inactive
CG1951	DRSC15403	3.08e7	3.08e7		1.37e7	1.55e7	inactive
CG10086	DRSC14183	3.89e7	3.73e7		1.99e7	1.68e7	inactive
CG11885	DRSC00329	2.52e7	2.73e7		1.30e7	1.39e7	inactive
CG14186	DRSC10185	3.42e7	4.30e7		1.49e7	2.78e7	inactive
Stacl (Stac-like)	DRSC05553	4.74e7	4.62e7		3.20e7	2.45e7	inactive
Stacl (Stac-like)	DRSC06260	3.84e7	3.50e7		1.97e7	1.63e7	inactive
Stacl (Stac-like)	DRSC06261	4.08e7	3.59e7		2.04e7	1.66e7	inactive
Stacl (Stac-like)	DRSC06777	3.77e7	3.53e7		1.93e7	1.65e7	inactive
Stacl (Stac-like)	DRSC07091	1.95e7	2.61e7		1.24e7	1.27e7	inactive
Stacl (Stac-like)	DRSC23019	5.18e7	3.33e7		2.49e7	1.43e7	inactive
Stacl (Stac-like)	DRSC23183	6.51e7	2.24e7		2.80e7	1.07e7	inactive
